{
  "source": "patent US6559281B1",
  "about": "“Non-naturally occurring synthetic lytic peptides” (priority 1993, dated 2003)",
  "target": "T1, Trypsin (Bos taurus, UniProt P00760)",
  "T1 sequence (P00760 24-246)": "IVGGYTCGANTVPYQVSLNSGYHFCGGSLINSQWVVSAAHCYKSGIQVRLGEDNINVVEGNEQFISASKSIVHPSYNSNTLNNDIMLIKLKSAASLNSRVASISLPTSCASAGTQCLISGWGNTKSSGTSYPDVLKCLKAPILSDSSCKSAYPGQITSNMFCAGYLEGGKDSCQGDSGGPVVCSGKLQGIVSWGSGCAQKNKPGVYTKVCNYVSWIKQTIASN",
  "assay": "Proteolytic resistance to trypsin digestion, quantified with modified TNBS assay",
  "conditions": "HEPES pH 7.78, incubated 30 minutes, 440 nm",
  "data": [
    {"smiles": "CC(C)C[C@H](NC(=O)[C@H](C)NC(=O)[C@H](CCCCN)NC(=O)[C@H](CCCCN)NC(=O)[C@H](CC(C)C)NC(=O)[C@H](C)NC(=O)[C@H](CCCCN)NC(=O)[C@H](CCCCN)NC(=O)[C@H](CC(C)C)NC(=O)[C@H](CCCCN)NC(=O)[C@H](CCCCN)NC(=O)[C@H](CC(C)C)NC(=O)[C@H](C)NC(=O)[C@H](CCCCN)NC(=O)[C@H](CCCCN)NC(=O)[C@H](CC(C)C)NC(=O)[C@H](C)NC(=O)[C@H](CCCCN)NC(=O)[C@H](CC(C)C)NC(=O)[C@H](C)NC(=O)[C@H](CC(C)C)NC(=O)[C@H](C)NC(=O)[C@@H](N)Cc1ccccc1)C(=O)O", "note": "[DP-1]", "values": [
      {"measurement": "change in the number of primary amino groups before and after trypsin digestion", "value": "an increase"}
    ]}
  ]
}
